# Results: PubChem BioAssay AID504648 (National Center for Advancing Translational Sciences (NCATS), 2011)
# Out of some 390,000 compounds screened, about 610 (0.16%) were called active. Inconclusive results, whose numbers are uncertain, are shown with a selection of clear calls. Calls come from the whole dose curve; as a rule, active = well fitted inhibition curve with a large enough effect; inconclusive = small, poorly fitted or top-dose-only effect, or effect the other way, or another doubt; inactive = no such curve, though single readings can be large or run the other way. Potencies of inconclusive entries are doubtful fits and often do not repeat.
# Test: Nrf2 qHTS screen for inhibitors: counterscreen for cytotoxicity
# Settings: A549 ARE-Fluc cells, CellTiter-Fluor viability, 18-24 h; activity change, negative = cytotoxicity: at 46 µM (top of the series)
# Outline: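 A549 ARE_Fluc cells in 5% FBS OPTI-MEM were exposed to compounds in concentration-response for 18-24 h at 37 deg C. Viability was read by CellTiter-Fluor fluorescence (Ex 405/Em 525) after 30 min, before the luciferase read.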
# % is set by controls: 0 for no effect and ±100 for the full control effect; potency is the fitted concentration of half-maximal effect.
Structure (SMILES),"activity change, negative = cytotoxicity",Potency
COc1cc(OC)c(NC(=O)C(c2ccccc2)N2Cc3ccccc3C2=O)cc1Cl (centres undefined),inactive: -10.1%,–
Cc1ccc(OCC(=O)Nc2ccc(-c3nc4ncccc4o3)cc2)c(C)c1,–,"inconclusive: 29.1 µM [falling, single point]"
Cc1c(NC(=O)CN2CCN(c3ccc([N+](=O)[O-])cc3)CC2)c(=O)n(-c2ccccc2)n1C,–,"inconclusive: 29.1 µM [falling, partial curve, poor fit]"
CCOC(=O)Nc1nc(-c2ccccc2)c(C(=O)c2ccc(Cl)cc2)s1,–,"inconclusive: 2.31 µM [falling, full curve]"
CC(C)CN(CCCNC(=O)c1cc(-c2ccc(Br)s2)nc2ccccc12)CC(C)C,inactive: -4.5%,–
COc1ccc(-c2nc(C(N)=O)c3[nH]c(=O)n(-c4cccc(Cl)c4)c3n2)cc1OC,–,"inconclusive: 18.4 µM [falling, single point]"
COC(=O)c1ccccc1NC(=O)c1cc2n(n1)C(C(F)F)CC(C(F)F)N2 (centres undefined),–,"inconclusive: 18.4 µM [falling, partial curve, poor fit]"
Cc1ccccc1NC(=S)NCc1ccc(F)cc1,–,"inconclusive: 32.6 µM [activator, partial curve, poor fit]"
CCc1ccc2nc(NC(=O)c3cc(C)on3)sc2c1,–,"inconclusive: 11.6 µM [falling, partial curve, poor fit]"
COc1ccc(Cl)cc1NC(=O)CSC1=Nc2ccccc2C2=NC(CCC(=O)NCc3ccc(F)cc3)C(=O)N12 (centres undefined),–,"inconclusive: 5.8 µM [falling, partial curve]"
O=C(NCc1ccccc1Cl)C1CCN(S(=O)(=O)Cc2ccccc2)CC1,inactive: 7.58%,–
O=C(O)c1cccc2c1-c1ccccc1/C2=N\Nc1ccccc1,–,"inconclusive: 29.1 µM [falling, single point]"
Cc1ccc2nc(-c3ccc(Cl)c(NC(=O)c4ccc5c(c4)OCCO5)c3)oc2c1,inactive: 4.01%,–
CN(C)CCNc1ncnc2c1cnn2-c1ccc(Cl)cc1,–,"inconclusive: 25.9 µM [activator, partial curve, poor fit]"
O=C(Nc1cccc2c1CCCC2)c1cc([N+](=O)[O-])ccc1Cl,inactive: -11.6%,–
O=C(CNc1ccccc1)N/N=C/c1cc([N+](=O)[O-])ccc1N1CCCC1,–,"inconclusive: 29.1 µM [falling, partial curve, poor fit]"
Cc1nc(Nc2ccc(Cl)c(Cl)c2)sc1C(=O)Nc1ccccc1,–,"inconclusive: 23.1 µM [falling, single point]"
C[n+]1c2n(c3ccccc31)N=C(c1ccc(-c3ccccc3)cc1)CS2,–,"inconclusive: 25.9 µM [falling, single point]"
Cc1ccc(NC(=O)CCCN2C(=O)c3cccc4cccc(c34)C2=O)cc1,–,"inconclusive: 32.6 µM [falling, partial curve, poor fit]"
OCCN(Cc1ccccc1)Cc1cccc(C(F)(F)F)c1,–,"inconclusive: 2.59 µM [activator, full curve, poor fit]"
C[C@]12c3[nH]c4cc(-c5ccco5)ccc4c3CCN1C(=O)[C@@H](CC(=O)NCc1cccc(C(F)(F)F)c1)C[C@@H]2C(=O)N1CCCCC1,–,"inconclusive: 20.6 µM [falling, single point]"
CC(=O)c1cccc2c(O)c(C3=Nc4ccccc4C3=O)[nH]c12,–,"inconclusive: 20.6 µM [falling, single point]"

# Pulled by structure from above:
Structure (SMILES),"activity change, negative = cytotoxicity",Potency
Cc1ccccc1NC(=S)NCc1ccc(F)cc1,–,"inconclusive: 32.6 µM [activator, partial curve, poor fit]"
Cc1nc(Nc2ccc(Cl)c(Cl)c2)sc1C(=O)Nc1ccccc1,–,"inconclusive: 23.1 µM [falling, single point]"
C[C@]12c3[nH]c4cc(-c5ccco5)ccc4c3CCN1C(=O)[C@@H](CC(=O)NCc1cccc(C(F)(F)F)c1)C[C@@H]2C(=O)N1CCCCC1,–,"inconclusive: 20.6 µM [falling, single point]"
O=C(Nc1cccc2c1CCCC2)c1cc([N+](=O)[O-])ccc1Cl,inactive: -11.6%,–

# Next records:

Structure (SMILES),"activity change, negative = cytotoxicity",Potency
COCCNC(=S)NNC(=O)c1cc(-c2cccnc2)nc2ccccc12,inactive: -0.563%,–
Cc1ccc(Cl)cc1N(C)C(=O)c1noc2c1CCCCC2,inactive: 9.83%,–
Cc1ccc(/C=N/NC(=O)c2c(C)nc3ccc(Br)cn23)cc1,–,"inconclusive: 25.9 µM [falling, partial curve, poor fit]"
CN(CCCCCCN(C)Cc1ccccc1O)Cc1ccccc1O,–,"inconclusive: 14.6 µM [falling, partial curve]"
O=C(Nc1cc(S(=O)(=O)N2CCCCC2)ccc1N1CCOCC1)c1cc(=O)[nH]c2ccccc12,–,"inconclusive: 23.1 µM [activator, partial curve, poor fit]"
O=C1OCCN1C(=O)[C@H]1[C@H](c2ccc(Cl)cc2)C(c2cccc(Cl)c2)=NN1c1ccc(Br)cc1,–,"inconclusive: 29.1 µM [activator, single point]"
O=C1/C(=C/c2ccc([N+](=O)[O-])cc2)C=C(c2ccccc2)N1c1ccc(O)cc1,–,"inconclusive: 18.4 µM [falling, partial curve, poor fit]"
Cc1[nH]c2ccc(F)cc2c1CCN(Cc1ccco1)C(=S)NC(C)(C)C,inactive: -0.592%,–
COC(=O)c1ccccc1NC(=O)CSc1nnnn1-c1ccc(C)cc1C,–,"inconclusive: 18.4 µM [falling, partial curve, poor fit]"
O=C(Nc1ccc(Cl)cc1)c1cc(S(=O)(=O)N2CCOCC2)cs1,–,"inconclusive: 18.4 µM [falling, single point]"
O=C(C1CCCN(S(=O)(=O)c2cccc3nonc23)C1)N1CCN(c2ccccc2Cl)CC1 (centres undefined),–,inactive
NC(=O)CC(NC(=O)Cc1cccc2ccccc12)c1ccc(N2CCCCCCC2)c([N+](=O)[O-])c1 (centres undefined),–,"inconclusive: 29.1 µM [falling, single point]"
Oc1ccccc1N1CCN(c2ncccn2)CC1,–,"inconclusive: 29.1 µM [activator, single point]"
O=C(Oc1ccc(Cl)c2cccnc12)C12CC3CC(CC(C3)C1)C2,inactive: 7.75%,–
N=C1/C(=C\c2ccc(SCc3ccco3)o2)C(=O)N=C2SC=NN12,–,"inconclusive: 14.6 µM [falling, partial curve, poor fit]"
CCC(c1nnnn1Cc1ccccc1)N(Cc1ccccc1)Cc1cc2cc(C)ccc2[nH]c1=O (centres undefined),–,"inconclusive: 11.6 µM [falling, partial curve]"
Clc1ccc(-c2nnc(NCc3ccccc3)c3ccccc23)cc1,–,"inconclusive: 20.6 µM [falling, single point]"
CCOc1ccccc1N(C(=O)c1snc(C(N)=O)c1N)C(C(=O)NCCC(C)C)c1ccco1 (centres undefined),–,"inconclusive: 32.6 µM [falling, partial curve, poor fit]"
O=C1N[C@@H](c2ccccc2)COC(=O)[C@@H](Cc2ccc(F)cc2)CC/C=C/C[C@H]1CC(=O)N(CCO)Cc1ccccc1,–,"inconclusive: 18.4 µM [falling, partial curve]"
COc1cccc(C(=O)NC(=O)Nc2cc(C)on2)c1,inactive: 3.14%,–
O=C1CCCN1CCCN=c1c([N+](=O)[O-])nn(-c2ccc(Cl)cc2)n1O,–,"inconclusive: 11.6 µM [falling, partial curve]"
CS(=O)(=O)N(Cc1ccccc1Cl)c1ccc(C(=O)NCc2ccccn2)cc1,–,"inconclusive: 32.6 µM [falling, partial curve, poor fit]"

Structure (SMILES),"activity change, negative = cytotoxicity",Potency
O=C(NCCc1ccccc1)C1CCN(Cc2cc3ccccc3n2Cc2ccccc2)CC1,–,"inconclusive: 14.6 µM [falling, partial curve, poor fit]"
Cc1ccc2c(c1)N(C)/C(=C/c1cccc[n+]1C)S2,–,"inconclusive: 29.1 µM [falling, single point]"
Cc1noc(C)c1COC(=O)c1ccc(S(=O)(=O)NCc2ccco2)cc1,–,"inconclusive: 18.4 µM [falling, partial curve, poor fit]"
C#CCN1C(=O)S/C(=C/C=C/c2ccc(N(C)C)cc2)C1=O,–,"inconclusive: 23.1 µM [falling, partial curve, poor fit]"
O=C(Nc1ccc(C(=O)N2CCN(c3ccccc3F)CC2)cc1)c1nsc2ccccc12,inactive: -1.13%,–
Cc1ccc(S(=O)(=O)n2c(N)nc3ccccc32)cc1,inactive: 2.42%,–
CC(=O)c1ccc(NC(=O)c2noc3c2CCC3)cc1,–,"inconclusive: 6.51 µM [falling, partial curve]"
COc1ccccc1-n1c(N)c(C(=O)NCC2CCCO2)c2nc3ccccc3nc21 (centres undefined),–,"inconclusive: 23.1 µM [activator, partial curve, poor fit]"
CCOC(=O)N1CCc2c(sc3c2c(=O)n(-c2ccc(F)cc2)c(=O)n3CC(=O)c2ccc(Cl)cc2)C1,inactive: -0.0684%,–
COc1ccc(C2=Nn3c(nnc3-c3cccc(OC)c3)SC2)cc1,–,"inconclusive: 25.9 µM [falling, partial curve, poor fit]"
CCOc1ccc(N2CC(c3nc4ccccc4n3CCCCOc3ccc(OC)cc3)CC2=O)cc1 (centres undefined),–,"inconclusive: 29.1 µM [falling, single point]"
CCCn1c(C)cc(C(=O)COc2ncnc3sccc23)c1C,inactive: 1.56%,–
CN(C)CC(C)(C)CNC(=S)Nc1ccc(S(=O)(=O)N2CCOCC2)cc1,–,"inconclusive: 18.4 µM [activator, partial curve, poor fit]"
CN(C)Cc1nc2ccccc2c(=O)n1Cc1nc(-c2cccc([N+](=O)[O-])c2)cs1,–,"inconclusive: 14.6 µM [falling, partial curve, poor fit]"
Cc1cc(C)cc(NC(=O)CSc2ccc(-c3ccco3)nn2)c1,inactive: 1.47%,–
COc1cc2c(cc1OC)C(C(=O)NC1CC1)C1c3ccccc3CCN1C2=O (centres undefined),inactive: -14.2%,–
CCC1(C)Cc2c(sc3nnn(Cc4ccccc4Cl)c(=O)c23)CO1 (centres undefined),inactive: -14.2%,–
CCN(CC)CCNc1ccnc2cc(Cl)ccc12,–,"inconclusive: 5.8 µM [falling, partial curve]"
COc1cc2c(cc1OC)C(c1ccc(-c3cc(Cl)ccc3Cl)o1)=NCC2,–,"inconclusive: 29.1 µM [falling, single point]"
C=CCSc1nc(C)cc(/C=C\c2ccccc2)c1C#N,inactive: 1.06%,–
